Experimental data from PubChem BioAssay AID602313 (National Center for Advancing Translational Sciences (NCATS), 2012).
The campaign covered roughly 390,000 compounds. About 760 (0.19%) were called active. The shares of active, inactive and inconclusive entries below differ from those in the screen. Calls come from the whole dose curve; as a rule, active = well fitted inhibition curve with a large enough effect; inconclusive = small, poorly fitted or top-dose-only effect; inactive = flat fitted curve, though single readings scatter. Potencies of inconclusive entries are doubtful fits and often do not repeat.

Experiment: qHTS for Inhibitors of Vif-A3F Interactions: qHTS; note: nearly all actives have a fitted effect of over 65% in size
Conditions: HeLa A3F-eYFP + Vif (tagged APOBEC3F with the HIV-1 protein that degrades it), YFP fluorescence increase; series mostly up to 46.1 µM
How it was run: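 HeLa cells stably expressing A3F-eYFP plus Vif, plated and incubated overnight at 37 deg C, then exposed to compounds overnight at 37 deg C. Blocked degradation read as raised yellow fluorescence (Ex 488/Em 500-530).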
Potency is the fitted concentration of half-maximal effect.

| Structure (SMILES) | Potency |
| --- | --- |
| Cc1ccc(Cn2c(C3CCCN3c3nc(C)cs3)nc3cc(C(F)(F)F)ccc32)cc1 (stereo unspecified) | inconclusive: 25.1 µM [inhibitor, single point] |
| CC(C)NS(=O)(=O)c1ccc(OCC(=O)NCCC2=CCCCC2)cc1 | inconclusive: 3.98 µM [inhibitor, single point] |
| COc1ccc2oc(=O)c(-c3nnc(NCc4ccco4)s3)cc2c1 | inconclusive: 6.31 µM [inhibitor, partial curve, poor fit] |
| COc1ccc(-n2c(SCC(=O)C(C)(C)C)nc3c(sc(=S)n3-c3ccccc3)c2=O)c(OC)c1 | inactive |
| O=c1oc2cc(O)ccc2cc1-c1nc(-c2ccc(Cl)c(Cl)c2)cs1 | inconclusive: 1 µM [inhibitor, full curve, poor fit] |
| N#CC1=C(N)Oc2cc(N)ccc2C1c1cccc(F)c1 (stereo unspecified) | inactive |
| Cc1ccc(C2=CC(c3ccccc3C)n3c(nc4ccccc43)N2)cc1 (stereo unspecified) | inconclusive: 15.8 µM [inhibitor, partial curve, poor fit] |
| COc1ccc(/C=C2\SC(=S)N(CCC(=O)Nc3cccc(O)c3)C2=O)cc1 | inconclusive: 35.5 µM [inhibitor, single point] |
| Cc1[nH][nH]c(=O)c1C(c1c(C)[nH][nH]c1=O)c1cn(Cc2ccc(Cl)c(Cl)c2)c2ccccc12 | inactive |
| COc1cc(F)c(S(=O)(=O)N2CCOc3ccccc32)cc1OC | inconclusive: 35.5 µM [inhibitor, single point] |
| CCn1nc(C)c2c(-c3ccccc3)cc(=O)n(C(C)C(=O)Nc3cccc(F)c3)c21 (stereo unspecified) | inactive |
| CNC(=S)N/N=C/c1cn(CCOc2ccc(OC)cc2)c2ccccc12 | inactive |
| O=C1NC(=S)S/C1=C\C=C\c1ccc([N+](=O)[O-])o1 | inconclusive: 35.5 µM [inhibitor, single point] |
| O=C(Nc1ccc(NC(=S)NC(=O)c2cccs2)cc1)c1ccccc1 | inactive |
| Oc1ccc(C=NN=Cc2ccco2)c(O)c1 | inconclusive: 31.6 µM [inhibitor, single point] |
| O=[N+]([O-])c1ccc(CP(=O)(c2ccccc2)c2ccccc2)cc1 | inconclusive: 35.5 µM [inhibitor, single point] |
| CC(=O)OC1(C(C)=O)CCC2C3CC(Cl)C4=CC(=O)CCC4(C)C3CCC21C (stereo unspecified) | inconclusive: 17.8 µM [inhibitor, partial curve, poor fit] |
| COc1ccc(-c2cc(C)no2)cc1S(=O)(=O)N1CC(=O)Nc2ccccc21 | inconclusive: 35.5 µM [inhibitor, single point] |
| CN(Cc1ccco1)c1ncnc2ccc(-c3ccccc3Cl)cc12 | inactive |
| COc1ccc(C2NC(=O)c3ccccc3N2)cc1OC (stereo unspecified) | inactive |
| CCOc1ccc(-n2nc3c(SCCN4CCCC4)nnc(C)c3c2C)cc1 | inconclusive: 22.4 µM [inhibitor, single point] |
| Cc1cn2c(N)c(C=C3C=C(Cl)C(=O)C(Cl)=C3)c(=O)nc2s1 | active: 10 µM |
| CC(C)C1CC(C(F)(F)F)n2nc(C(=O)O)cc2N1 (stereo unspecified) | inconclusive: 2 µM [inhibitor, partial curve, poor fit] |
| O=C(CN1CCCCC1)NC(=O)Nc1ccccc1F | inconclusive: 35.5 µM [inhibitor, single point] |

Looked up one by one from the list above, 5 records:

| Structure (SMILES) | Potency |
| --- | --- |
| COc1cc(F)c(S(=O)(=O)N2CCOc3ccccc32)cc1OC | inconclusive: 35.5 µM [inhibitor, single point] |
| Cc1cn2c(N)c(C=C3C=C(Cl)C(=O)C(Cl)=C3)c(=O)nc2s1 | active: 10 µM |
| CNC(=S)N/N=C/c1cn(CCOc2ccc(OC)cc2)c2ccccc12 | inactive |
| CC(=O)OC1(C(C)=O)CCC2C3CC(Cl)C4=CC(=O)CCC4(C)C3CCC21C (stereo unspecified) | inconclusive: 17.8 µM [inhibitor, partial curve, poor fit] |
| COc1ccc(/C=C2\SC(=S)N(CCC(=O)Nc3cccc(O)c3)C2=O)cc1 | inconclusive: 35.5 µM [inhibitor, single point] |

Following part

| Structure (SMILES) | Potency |
| --- | --- |
| CCN1CCc2c(sc(NC(=S)NC(=O)c3ccco3)c2C(N)=O)C1 | inconclusive: 3.55 µM [inhibitor, partial curve, poor fit] |
| Oc1ccccc1/C=N/NC(=S)NC1CC2C=CC1C2 (stereo unspecified) | inconclusive: 3.55 µM [inhibitor, single point] |
| N#CC(c1ccc(Cl)nn1)c1c(F)cccc1Cl (stereo unspecified) | inactive |
| O=C(CCS(=O)(=O)c1nc(-c2cccs2)cc(C(F)(F)F)n1)Nc1ccc(Br)cc1 | inactive |
| O=[N+]([O-])c1cc(-c2cccnc2)n[nH]1 | inconclusive: 14.1 µM [inhibitor, single point] |
| Cc1ccc(NC(=O)/C(C#N)=C\c2ccc(-c3ccc(Cl)cc3)o2)c(C)c1 | active: 3.16 µM |
| CC1(C)CCC(=NNC(N)=S)CC1 | inactive |
| CCc1ccc(/C=C/c2c([N+](=O)[O-])c(=O)n(C)c(=O)n2C)cc1 | inconclusive: 3.55 µM [inhibitor, single point] |
| C#CCSc1nc(-c2cccs2)ccc1C#N | active: 2.82 µM |
| Cc1cc(C=C2C(=O)c3ccccc3C2=O)c(C)n1C | inconclusive: 15.8 µM [inhibitor, partial curve, poor fit] |
| O=C(NNC(=O)C1CC1)c1ccc(F)cc1F | inconclusive: 11.2 µM [inhibitor, partial curve, poor fit] |
| COc1cnc(-c2ccccn2)nc1Oc1ccc(F)cc1F | active: 11.2 µM |
| CC1CC(C)(C)CC2(C1)NC(=O)N(CC(=O)N(Cc1ccccc1)c1ccccc1)C2=O (stereo unspecified) | inconclusive: 0.631 µM [inhibitor, full curve, poor fit] |
| S=C(NCCc1cccc(Cl)c1)NC1CCCCC1 | inconclusive: 35.5 µM [inhibitor, single point] |
| COc1ccccc1Oc1ccc2c(c1)C(=O)N(c1cccc3ncccc13)C2=O | inconclusive: 5.62 µM [inhibitor, single point] |
| Cc1ccc(C(=O)N/C(=C/c2ccco2)C(=O)Nc2cccc(C)c2)cc1 | inactive |
| COc1ccccc1Cn1c(=S)[nH]c2cc(C(=O)NCCN(C)C)ccc2c1=O | inactive |
| O=C(O)C1Sc2[nH]c(=O)sc2C2c3ccc(O)cc3OC(=O)C12 (stereo unspecified) | inactive |
| Cc1cccc(NC(=O)COc2ccc(/C=C\c3[nH]c(=O)[nH]c(=O)c3[N+](=O)[O-])cc2)c1 | inactive |
| O=C(Cc1ccc(Br)cc1)NCCc1ccc(Cl)cc1Cl | inconclusive: 35.5 µM [inhibitor, single point] |
| CCN(CC)S(=O)(=O)c1cccc(NC(=O)C2SC(=Nc3ccc(C)cc3C)C(C(=O)NCC3CCCO3)=C2N)c1 (stereo unspecified) | inactive |
| O=C(Cc1ccc(Cl)cc1)NNC(=S)NC(=O)c1cccs1 | inconclusive: 17.8 µM [inhibitor, single point] |
| CC1=CC(C)(C)Nc2ccc(OC(=O)c3cccnc3)cc21 | inconclusive: 35.5 µM [inhibitor, single point] |
| C(=N\NC1=Nc2cccc3cccc1c23)/c1ccccc1 | inconclusive: 35.5 µM [inhibitor, single point] |

| Structure (SMILES) | Potency |
| --- | --- |
| CC(NC(=O)c1ccco1)c1nc(-c2ccccc2)no1 (stereo unspecified) | inconclusive: 3.98 µM [inhibitor, single point] |
| CCOC(=O)C1=C(C)N(CC)C(=S)NC1c1ccc(Cl)cc1 (stereo unspecified) | inconclusive: 22.4 µM [inhibitor, partial curve, poor fit] |
| Fc1ccc(NC(=S)N/N=C/c2ccc(F)c(F)c2)cc1 | inconclusive: 3.55 µM [inhibitor, single point] |
| C=CCc1cc(/C=C2/NC(=S)NC2=O)cc(OC)c1O | inconclusive: 31.6 µM [inhibitor, single point] |
| Cc1ccc(Nc2nc(N)nc(CN3CCN(Cc4ccc5c(c4)OCO5)CC3)n2)cc1C | inconclusive: 31.6 µM [inhibitor, single point] |
| CCCCOc1ccc(CONS(=O)(=O)c2ccc(NC(C)=O)cc2)cc1Cl | inconclusive: 35.5 µM [inhibitor, single point] |
| CCN(CC)c1ccc(/C=N/NC(=S)NCc2ccc(OC)cc2)cc1 | inactive |
| COc1ccc(S(=O)(=O)N2CCNC(=O)C2)cc1Br | inconclusive: 1.12 µM [inhibitor, full curve, poor fit] |
| COC(=O)c1ccc(CSc2cc(C)c3cc(C)cc(C)c3n2)o1 | inconclusive: 35.5 µM [inhibitor, single point] |
| CCN(Cc1ccncc1)Cc1c(O)ccc2ccccc12 | inactive |
| C/C(=N\NC(N)=S)c1ccccc1 | inconclusive: 22.4 µM [inhibitor, single point] |
| Cc1c(C)n(CC(O)CNc2ccccc2)c2ccccc12 (stereo unspecified) | inconclusive: 10 µM [inhibitor, partial curve, poor fit] |
| O=[N+]([O-])c1ccc(NN=Cc2cccc3ccccc23)nc1 | inconclusive: 17.8 µM [inhibitor, partial curve, poor fit] |
| Cc1ccnc(NC(=O)CCC(=O)c2cc(C)sc2C)c1 | inconclusive: 35.5 µM [inhibitor, single point] |
| COc1ccc(NC(=O)c2sc3nc(C(F)(F)F)cc(C)c3c2N)cc1OC | active: 5.62 µM |
| CCC(C)(C(=O)NC1CCCC1)N(C(=O)CNC(=O)c1ccccc1)c1c(C)n(C)n(-c2ccccc2)c1=O (stereo unspecified) | inconclusive: 6.31 µM [inhibitor, single point] |
| CCN(CC)S(=O)(=O)c1ccc2c(c1)nc(CN(C)C(=O)Nc1ccc(C)c(F)c1)n2C | inactive |
| Cn1cc(/C=C/c2cc[n+](C)cc2)c2cc(F)ccc21 | inconclusive: 1.78 µM [inhibitor, full curve, poor fit] |
| O=C(O)c1ccc(-c2ccc(/C=c3/sc4nc5ccccc5n4c3=O)o2)cc1Cl | inconclusive: 35.5 µM [inhibitor, single point] |
| Cc1cc(C)c(S(C)(=O)=O)c(Oc2ccc(F)cc2)n1 | inactive |
| O=C1N/C(=C/c2ccc(N3CCOCC3)o2)C(=O)N1c1ccccc1 | inconclusive: 3.16 µM [inhibitor, single point] |
| CCn1c(NCc2ccc3c(c2)OCO3)nc2ccccc21 | inactive |
| CCOc1ccc(CNC(=O)c2cc(-c3ccc(Cl)s3)nc3ccccc23)cc1 | inconclusive: 15.8 µM [inhibitor, single point] |
